These are yes or no findings as the source states them, for the method shown. Some results given as binding are weak or reduced against the parent protein; the word gives no strength.
Molecular target: LILRA3 expressed on transiently transfected Expi293 cells (human) (UniProt Q8N6C8)
Assay: flow cytometry, transfected Expi293 cells

By UniProt entry, the sequences of proteins in these tests, tags left out. Where a name states a change or a piece, a line headed by the entry shows the natural chain unless it says otherwise.
UniProt Q8N6C8: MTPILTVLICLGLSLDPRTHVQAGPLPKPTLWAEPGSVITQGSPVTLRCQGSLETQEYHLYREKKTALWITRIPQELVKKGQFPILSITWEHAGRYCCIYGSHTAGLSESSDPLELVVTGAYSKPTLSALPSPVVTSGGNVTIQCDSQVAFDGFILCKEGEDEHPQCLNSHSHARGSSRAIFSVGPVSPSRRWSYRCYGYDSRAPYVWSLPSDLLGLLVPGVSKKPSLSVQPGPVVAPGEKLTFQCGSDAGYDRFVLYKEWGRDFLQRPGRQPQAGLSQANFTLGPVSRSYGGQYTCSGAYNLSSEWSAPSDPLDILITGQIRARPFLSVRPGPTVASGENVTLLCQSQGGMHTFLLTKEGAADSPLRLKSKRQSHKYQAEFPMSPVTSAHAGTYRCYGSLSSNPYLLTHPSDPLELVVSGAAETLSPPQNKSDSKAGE

- binding: binds
B1: A-045 (antibody, V domains shown)
VH: QVQLVQSGAEVKKPGSSVKVSCKASGGTFQSQAFAWVRQAPGQGLEWMGSIIPGFSTANYAQKFQGRVTITADESTSTAYMELSSLRSEDTAVYYCAKDLGTYSSGWPYYYGMDVWGQGTTVTVSS
VL: SYELTQPPSVSVSPGQTASITCSGDKLGDKYASWYQQKPGQSPVLVIYQDSKRPSGIPERFSGSNSGNTATLTISGTQAEDEADYYCQLTHLTIYVFGGGTKLTVL
